The values below come from patent US20090312253A1.

Amino acid sequences for entries named in this document (tags omitted). Residues count along the entry.
UniProt Q91VN0, residues 31-287: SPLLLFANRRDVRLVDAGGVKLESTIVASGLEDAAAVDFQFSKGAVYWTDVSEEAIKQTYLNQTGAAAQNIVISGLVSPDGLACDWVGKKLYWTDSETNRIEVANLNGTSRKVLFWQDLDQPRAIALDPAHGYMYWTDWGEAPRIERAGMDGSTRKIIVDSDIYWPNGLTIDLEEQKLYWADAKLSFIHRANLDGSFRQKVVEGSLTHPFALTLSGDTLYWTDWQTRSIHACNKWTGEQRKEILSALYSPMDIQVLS

No constants are given. Whether binding was seen depends on the method and setting. In cells and extracts the contact can be indirect. Some entries that bind do so weakly or less than the wild type. Tags and fused reporters may be left off the sequences shown.

The test concerns the target first β-propeller domain of mouse LRP5 with HA tag (LRP5-PD1-HA) (mouse) (UniProt Q91VN0). Nature of the test: S-protein-agarose pulldown of LRP5-PD1-HA conditioned medium with S-tagged Dkk2C2, anti-HA Western blot. For orientation: Immunoblotting shows a protein as a band on a membrane.

B1: S-tagged Dkk2C2 (recombinant C-terminal cysteine-rich domain of mouse Dkk2, amino acids Met172-Ile259, with N-terminal S tag and thrombin cleavage site) (ligand, not shown: small tags and cut ends)
chain: MPHIKGHEGDPCLRSSDCIDGFCCARHFWTKICKPVLHQGEVCTKQRKKGSHGLEIFQRCDCAKGLSCKVWKDATYSSKARLHVCQKI
As to B1, the binding entry is on record as “binds”.
